Laboratory results published in PubChem BioAssay AID248 (DTP/NCI, 2004).
The list is a part of this screen's results and no random one: its compounds were picked by chemical class. Not every dose and run of a compound is shown. T/C: endpoint of the treated group in % of that of the vehicle group. For survival time, the PubChem record calls one and a half times the control and up active, and a quarter to a half above the control has no call in these data; cut-offs in other NCI protocols can differ. Some entries show no survivor count and are marked so; the dose need not have been tolerated. Schedules are NCI's codes, taken here to give the interval after Q, in days (D) or hours (H), and the number of doses after X. Some entries were tested several times; the results are listed from low to high. Some schedule codes hold Z or #, which are not explained here. Signs of the kind (2×) say how often a value occurs here.

System: L1210 leukemia ip in BDF1 mice, survival T/C
Experiment: NCI In Vivo Anticancer Drug Screen. Data for tumor model L1210 Leukemia (intraperitoneal) in B6D2F1 (BDF1) mice
Settings: higher T/C = longer survival

## CC(C(=O)O)N(CCCl)CCCl (stereo not drawn)
T/C endpoint: mean survival time, dose: 0.19 mg/kg/injection, schedule: Q01DX Z (ip), vehicle: saline
  T/C: 93 % of control [survivor count not shown]
T/C endpoint: mean survival time, dose: 0.25 mg/kg/injection, schedule: Q01DX010 (ip), vehicle: saline
  T/C: 125 % of control [survivor count not shown]
T/C endpoint: mean survival time, dose: 0.38 mg/kg/injection, schedule: Q01DX Z (ip), vehicle: saline
  T/C: 89 % of control [survivor count not shown]
T/C endpoint: mean survival time, dose: 0.5 mg/kg/injection, schedule: Q01DX001 (ip), vehicle: saline
  T/C: 112 % of control [survivor count not shown]
T/C endpoint: mean survival time, dose: 0.5 mg/kg/injection, schedule: Q01DX010 (ip), vehicle: saline
  T/C: 127 % of control [survivor count not shown]
T/C endpoint: mean survival time, dose: 0.66 mg/kg/injection, schedule: Q01DX Z (ip), vehicle: carboxymethylcellulose (CMC)
  T/C: 120 % of control [survivor count not shown]
T/C endpoint: mean survival time, dose: 0.75 mg/kg/injection, schedule: Q01DX Z (ip), vehicle: saline
  T/C: 115 % of control [survivor count not shown]
T/C endpoint: mean survival time, dose: 0.82 mg/kg/injection, schedule: Q01DX Z (ip), vehicle: carboxymethylcellulose (CMC)
  T/C: 113 % of control [survivor count not shown]
T/C endpoint: mean survival time, dose: 0.83 mg/kg/injection, schedule: Q01DX Z (ip), vehicle: carboxymethylcellulose (CMC)
  T/C: 126 % of control [survivor count not shown]
T/C endpoint: mean survival time, dose: 1.0 mg/kg/injection, schedule: Q01DX001 (ip), vehicle: saline
  T/C: 125 % of control [survivor count not shown]
T/C endpoint: mean survival time, dose: 1.0 mg/kg/injection, schedule: Q01DX009 (ip), vehicle: saline
  T/C: 132 [survivor count not shown] and 135 % of control [survivor count not shown]
T/C endpoint: mean survival time, dose: 1.0 mg/kg/injection, schedule: Q01DX010 (ip), vehicle: saline
  T/C: 122 [survivor count not shown] and 128 % of control [survivor count not shown]
T/C endpoint: mean survival time, dose: 1.5 mg/kg/injection, schedule: Q01DX Z (ip), vehicle: carboxymethylcellulose (CMC)
  T/C: 114 % of control [survivor count not shown]
T/C endpoint: mean survival time, dose: 1.5 mg/kg/injection, schedule: Q01DX Z (ip), vehicle: saline
  T/C: 126 % of control [survivor count not shown] (2×)
T/C endpoint: mean survival time, dose: 1.65 mg/kg/injection, schedule: Q01DX Z (ip), vehicle: carboxymethylcellulose (CMC)
  T/C: 127 % of control [survivor count not shown] (2×)
T/C endpoint: mean survival time, dose: 2.0 mg/kg/injection, schedule: Q01DX001 (ip), vehicle: saline
  T/C: 128 % of control [survivor count not shown]
T/C endpoint: mean survival time, dose: 2.0 mg/kg/injection, schedule: Q01DX009 (ip), vehicle: saline
  T/C: 142 [survivor count not shown] and 176 % of control [survivor count not shown]
T/C endpoint: mean survival time, dose: 2.0 mg/kg/injection, schedule: Q01DX010 (ip), vehicle: saline
  T/C: 141 [survivor count not shown] and 153 % of control [survivor count not shown]
T/C endpoint: mean survival time, dose: 2.2 mg/kg/injection, schedule: Q01DX Z (ip), vehicle: other
  T/C: 130 [survivor count not shown] and 134 % of control [survivor count not shown]
T/C endpoint: mean survival time, dose: 3.0 mg/kg/injection, schedule: Q01DX Z (ip), vehicle: saline
  T/C: 120 % of control [survivor count not shown]
T/C endpoint: mean survival time, dose: 3.3 mg/kg/injection, schedule: Q01DX Z (ip), vehicle: carboxymethylcellulose (CMC)
  T/C: 150 % of control [survivor count not shown]
T/C endpoint: mean survival time, dose: 3.3 mg/kg/injection, schedule: Q01DX Z (ip), vehicle: other
  T/C: 134 [survivor count not shown] and 142 % of control [survivor count not shown]
T/C endpoint: mean survival time, dose: 3.7 mg/kg/injection, schedule: Q01DX Z (ip), vehicle: carboxymethylcellulose (CMC)
  T/C: 130 % of control [survivor count not shown]
T/C endpoint: mean survival time, dose: 4.0 mg/kg/injection, schedule: Q01DX001 (ip), vehicle: saline
  T/C: 128 [survivor count not shown] and 143 % of control [survivor count not shown]
T/C endpoint: mean survival time, dose: 4.0 mg/kg/injection, schedule: Q01DX009 (ip), vehicle: saline
  T/C: 134 [survivor count not shown] and 158 % of control [survivor count not shown]
T/C endpoint: mean survival time, dose: 4.0 mg/kg/injection, schedule: Q01DX010 (ip), vehicle: saline
  T/C: 89 % of control [survivor count not shown]
T/C endpoint: mean survival time, dose: 5.0 mg/kg/injection, schedule: Q01DX Z (ip), vehicle: other
  T/C: 139 [survivor count not shown] and 141 % of control [survivor count not shown]
T/C endpoint: mean survival time, dose: 6.0 mg/kg/injection, schedule: Q01DX Z (ip), vehicle: saline
  T/C: 89 % of control [survivor count not shown]
T/C endpoint: mean survival time, dose: 7.4 mg/kg/injection, schedule: Q01DX Z (ip), vehicle: carboxymethylcellulose (CMC)
  T/C: 116 % of control [survivor count not shown]
T/C endpoint: mean survival time, dose: 7.5 mg/kg/injection, schedule: Q01DX Z (ip), vehicle: other
  T/C: 134 [survivor count not shown] and 136 % of control [survivor count not shown]
T/C endpoint: mean survival time, dose: 8.0 mg/kg/injection, schedule: Q01DX001 (ip), vehicle: saline
  T/C: 125 % of control [survivor count not shown]
T/C endpoint: mean survival time, dose: 8.0 mg/kg/injection, schedule: Q01DX009 (ip), vehicle: saline
  T/C: 88 % of control [survivor count not shown]
T/C endpoint: mean survival time, dose: 16.0 mg/kg/injection, schedule: Q01DX001 (ip), vehicle: saline
  T/C: 162 % of control [survivor count not shown]
T/C endpoint: median survival time, dose: 1.0 mg/kg/injection, schedule: Q01DX009 (ip), vehicle: saline
  T/C: 128 [survivor count not shown] and 133 % of control [survivor count not shown]
T/C endpoint: median survival time, dose: 2.0 mg/kg/injection, schedule: Q01DX009 (ip), vehicle: saline
  T/C: 138 [survivor count not shown] and 150 % of control [survivor count not shown]
T/C endpoint: median survival time, dose: 4.0 mg/kg/injection, schedule: Q01DX009 (ip), vehicle: saline
  T/C: 138 [survivor count not shown] and 185 % of control [survivor count not shown]
T/C endpoint: median survival time, dose: 8.0 mg/kg/injection, schedule: Q01DX009 (ip), vehicle: saline
  T/C: 107 % of control [survivor count not shown]

## COc1cc(N(CCCl)CCCl)ccc1C=O
T/C endpoint: mean survival time, dose: 100.0 mg/kg/injection, schedule: Q01DX001 (ip), vehicle: Klucel (hydroxypropylcellulose) (HPC)
  T/C: 101 % of control [survivor count not shown]
T/C endpoint: mean survival time, dose: 100.0 mg/kg/injection, schedule: Q01DX009 (ip), vehicle: Klucel (hydroxypropylcellulose) (HPC)
  T/C: 100 % of control [survivor count not shown]
T/C endpoint: mean survival time, dose: 100.0 mg/kg/injection, schedule: Q04DX003 (ip), vehicle: Klucel (hydroxypropylcellulose) (HPC)
  T/C: 111 % of control [survivor count not shown]
T/C endpoint: mean survival time, dose: 200.0 mg/kg/injection, schedule: Q01DX001 (ip), vehicle: Klucel (hydroxypropylcellulose) (HPC)
  T/C: 101 % of control [survivor count not shown]
T/C endpoint: mean survival time, dose: 200.0 mg/kg/injection, schedule: Q01DX009 (ip), vehicle: Klucel (hydroxypropylcellulose) (HPC)
  T/C: 100 % of control [survivor count not shown]
T/C endpoint: mean survival time, dose: 200.0 mg/kg/injection, schedule: Q04DX003 (ip), vehicle: Klucel (hydroxypropylcellulose) (HPC)
  T/C: 104 % of control [survivor count not shown]
T/C endpoint: mean survival time, dose: 400.0 mg/kg/injection, schedule: Q01DX001 (ip), vehicle: Klucel (hydroxypropylcellulose) (HPC)
  T/C: 101 % of control [survivor count not shown]
T/C endpoint: mean survival time, dose: 400.0 mg/kg/injection, schedule: Q01DX009 (ip), vehicle: Klucel (hydroxypropylcellulose) (HPC)
  T/C: 104 % of control [survivor count not shown]
T/C endpoint: mean survival time, dose: 400.0 mg/kg/injection, schedule: Q04DX003 (ip), vehicle: Klucel (hydroxypropylcellulose) (HPC)
  T/C: 98 % of control [survivor count not shown]

## O=C(c1ccccc1)N(CCCl)CCCl
T/C endpoint: mean survival time, dose: 100.0 mg/kg/injection, schedule: Q01DX009 (ip), vehicle: saline
  T/C: 104 % of control [survivor count not shown]
T/C endpoint: mean survival time, dose: 200.0 mg/kg/injection, schedule: Q01DX009 (ip), vehicle: saline
  T/C: 112 % of control [survivor count not shown]
